Results: patent US11541133B2, “Treatment of cancer cells overexpressing somatostatin receptors using ocreotide derivatives chelated to radioisotopes” (RADIOMEDIX INC., priority 2017, dated 2023)
Not every detail of the peptide structures is certain; ends, links or a residue may be inferred.

Columns and labels:
AR42J cancer cell line [1] = assay: Cellular uptake study in AR42J cancer cell line (FIG. 9); type: cell-based; conditions: 100,000 cell per well, 1.5 h at 37° C., 24 μCi/well
AR42J cancer cell line [2] = assay: In vitro uptake and competition study with unlabeled DOTATATE in AR42J cells (FIG. 10); type: cell-based; conditions: 2 h at 37° C.
AR42J xenograft = assay: Efficacy study in AR42J xenograft bearing athymic nude mice, dose ranging (FIG. 18-20); type: in vivo

Row | Compound | in vitro accumulation in the AR42J cancer cell line (AR42J cancer cell line [1]) [% ID/mg] | reduction of accumulation of ^203Pb-DOTAMTATE in AR42J cells (AR42J cancer cell line [2]; co-incubation with unlabeled DOTATATE 10 μg/ml) [%] | reduction of accumulation of ^203Pb-DOTAMTATE in AR42J cells (AR42J cancer cell line [2]; co-incubation with unlabeled DOTATATE 20 μg/ml) [%] | reduction of accumulation of ^203Pb-DOTAMTATE in AR42J cells (AR42J cancer cell line [2]; co-incubation with unlabeled DOTATATE 50 μg/ml) [%] | mice tumor free at the end of the study (AR42J xenograft; 2 injections of 10 μCi) [%] | animals tumor free at the conclusion of the study (6 months) (AR42J xenograft; 3×10 μCi injections) [%]
1 | C[C@@H](O)[C@H](NC(=O)[C@@H]1CSSC[C@H](NC(=O)[C@@H](Cc2ccccc2)NC(=O)CN2CCN(CC(N)=O)CCN(CC(N)=O)CCN(CC(N)=O)CC2)C(=O)N[C@@H](Cc2ccc(O)cc2)C(=O)N[C@H](Cc2c[nH]c3ccccc23)C(=O)N[C@@H](CCCCN)C(=O)N[C@@H]([C@@H](C)O)C(=O)N1)C(=O)O [^64Cu-DOTAMTATE, metal not drawn] | 33.41±0.49 |  |  |  |  | 
2 | C[C@@H](O)[C@H](NC(=O)[C@@H]1CSSC[C@H](NC(=O)[C@@H](Cc2ccccc2)NC(=O)CN2CCN(CC(N)=O)CCN(CC(N)=O)CCN(CC(N)=O)CC2)C(=O)N[C@@H](Cc2ccc(O)cc2)C(=O)N[C@H](Cc2c[nH]c3ccccc23)C(=O)N[C@@H](CCCCN)C(=O)N[C@@H]([C@@H](C)O)C(=O)N1)C(=O)O [^203Pb-DOTAMTATE, ((4R,7S,10S,13R,16S,19R)-13-((1H-indol-3-yl)methyl)-10-(4-aminobutyl)-16-(4-hydroxybenzyl)-7-((R)-1-hydroxyethyl)-6,9,12,15,18-pentaoxo-19-((R)-3-phenyl-2-(2-(4,7,10-tris(2-amino-2-oxoethyl)-1,4,7,10-tetraazacyclododecan-1-yl)acetamido)propanamido)-1,2-dithia-5,8,11,14,17-pentaazacycloicosane-4-carbonyl)-L-threonine chelated to M, metal not drawn] | 21.4±2.26 | 14 | 36 | 65 |  | 
3 | C[C@@H](O)[C@H](NC(=O)[C@@H]1CSSC[C@H](NC(=O)[C@@H](Cc2ccccc2)NC(=O)CN2CCN(CC(N)=O)CCN(CC(N)=O)CCN(CC(N)=O)CC2)C(=O)N[C@@H](Cc2ccc(O)cc2)C(=O)N[C@H](Cc2c[nH]c3ccccc23)C(=O)N[C@@H](CCCCN)C(=O)N[C@@H]([C@@H](C)O)C(=O)N1)C(=O)O [^212Pb-DOTAMTATE, ((4R,7S,10S,13R,16S,19R)-13-((1H-indol-3-yl)methyl)-10-(4-aminobutyl)-16-(4-hydroxybenzyl)-7-((R)-1-hydroxyethyl)-6,9,12,15,18-pentaoxo-19-((R)-3-phenyl-2-(2-(4,7,10-tris(2-amino-2-oxoethyl)-1,4,7,10-tetraazacyclododecan-1-yl)acetamido)propanamido)-1,2-dithia-5,8,11,14,17-pentaazacycloicosane-4-carbonyl)-L-threonine chelated to M, metal not drawn] |  |  |  |  | 20 | 33
